Test results: PMC8824505, “Complexes of Ghrelin GHS-R1a, GHS-R1b, and Dopamine D1 Receptors Localized in the Ventral Tegmental Area as Main Mediators of the Dopaminergic Effects of Ghrelin” (The Journal of Neuroscience, 2022)
These are yes or no findings as the source states them, for the method shown. Binding seen in cells or lysates may run through a third protein. Some entries that bind do so weakly or less than the wild type.

Chains of the proteins cited; added tags and fusions are not shown. Lines headed by an entry give the natural chain unless they say otherwise; changes in a name come on top. A line that says so, or that is headed by a name, gives the form on record, which may keep a tag or linker.
UniProt P21918: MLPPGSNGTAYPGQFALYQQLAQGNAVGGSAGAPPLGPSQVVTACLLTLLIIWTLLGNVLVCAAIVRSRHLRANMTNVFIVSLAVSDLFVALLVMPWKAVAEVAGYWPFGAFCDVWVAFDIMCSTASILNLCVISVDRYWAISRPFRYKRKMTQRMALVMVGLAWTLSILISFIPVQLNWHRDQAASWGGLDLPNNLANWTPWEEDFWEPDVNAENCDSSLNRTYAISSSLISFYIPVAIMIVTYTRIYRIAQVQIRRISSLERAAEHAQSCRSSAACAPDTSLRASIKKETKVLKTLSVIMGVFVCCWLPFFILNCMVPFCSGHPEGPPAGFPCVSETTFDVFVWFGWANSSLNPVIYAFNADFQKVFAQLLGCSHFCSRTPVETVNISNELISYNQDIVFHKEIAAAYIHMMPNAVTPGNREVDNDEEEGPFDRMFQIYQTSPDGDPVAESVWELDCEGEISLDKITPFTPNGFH
UniProt Q92847: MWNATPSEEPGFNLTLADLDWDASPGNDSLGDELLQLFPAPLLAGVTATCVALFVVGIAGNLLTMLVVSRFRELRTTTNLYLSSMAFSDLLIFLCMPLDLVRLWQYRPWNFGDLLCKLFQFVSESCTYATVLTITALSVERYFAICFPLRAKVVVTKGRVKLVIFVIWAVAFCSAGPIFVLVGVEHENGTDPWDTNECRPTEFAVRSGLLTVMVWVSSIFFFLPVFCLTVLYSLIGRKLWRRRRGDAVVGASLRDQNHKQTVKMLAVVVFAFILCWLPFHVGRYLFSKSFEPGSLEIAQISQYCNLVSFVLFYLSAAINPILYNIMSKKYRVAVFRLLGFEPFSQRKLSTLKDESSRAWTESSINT
GHS-R1b fused to YFP (GHS-R1b-YFP) (Q92847-2, form named): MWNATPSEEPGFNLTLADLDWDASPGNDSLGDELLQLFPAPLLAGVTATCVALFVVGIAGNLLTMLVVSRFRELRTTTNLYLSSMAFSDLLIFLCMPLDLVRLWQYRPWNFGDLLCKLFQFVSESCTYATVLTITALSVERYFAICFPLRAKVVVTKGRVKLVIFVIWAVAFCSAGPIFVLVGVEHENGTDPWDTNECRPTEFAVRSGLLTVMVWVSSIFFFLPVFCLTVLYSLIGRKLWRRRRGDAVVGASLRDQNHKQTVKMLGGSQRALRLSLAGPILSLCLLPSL

Experiments:
[1] = target: D5R fused to RLuc (D5R-RLuc) (human) (UniProt P21918); test: FRET or BRET; BRET1 saturation in living HEK293T cells: constant D5R-RLuc cDNA (0.8 µg), increasing receptor-YFP cDNA; coelenterazine H 5 µM; a saturation curve is read as oligomerization, a straight line as random collision
[2] = target: GHS-R1a fused to GFP2 (GHS-R1a-GFP2) (human) (UniProt Q92847); test: FRET or BRET; SRET (sequential BRET-FRET) saturation in living HEK293T cells: constant D5R-RLuc cDNA (1 µg) and GHS-R1a-GFP2 cDNA (1.5 µg), increasing GHS-R1b-YFP cDNA (0.1–1.5 µg); DeepBlueC 5 µM
[3] = target: D5R fused to RLuc (D5R-RLuc) (human) (UniProt P21918); test: as above

Row | binding [1] | binding [2] | binding [3] | Substance
1 | no binding | – | – | GHS-R1a fused to YFP (GHS-R1a-YFP) (from UniProt Q92847-1 1-366) (receptor)
2 | binds | binds | binds | GHS-R1b fused to YFP (GHS-R1b-YFP) (from UniProt Q92847-2 1-289) (receptor)
